Binding data for one substance are collected here from PMC9910796.

These are yes or no findings as the source states them, for the method shown. Binding seen in cells or lysates may run through a third protein. Some entries that bind do so weakly or less than the wild type.

The experiment deals with pp220NT-V5 (N-terminal fragment of polyprotein pp220 comprising the p5 and p34 regions, fused to a [change] tag) (African swine fever virus) (UniProt Q08358). In words: co-IP; […] (0.1% Triton X-100 in PBS, […].

Consider “pEP84R-Flag (ASFV transmembrane protein pEP84R with a C-terminal 3x-Flag tag) (from UniProt Q07383 1-84)”, for which the binding entry is reported as “binds”.
